According to PubChem BioAssay AID2685 (National Center for Advancing Translational Sciences (NCATS), 2010):
This is one part of the list. These are further read-outs of the screen, such as a control signal, another cell line or another target. No call is given for them. Compounds called inactive in the main read-out are mostly missing here. The note in brackets gives the kind of curve behind each potency; many fits are weak.

Experiment: qHTS Assay for Lipid Storage Modulators in Drosophila S3 Cells;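 for cell number change: cells counted by Cell Tracker Red CMTPX staining in the red channel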
Settings: BODIPY lipid droplet fluorescence, 18-24 h; for cell number change: measured here: cell count max response, cells fed with added oleic acid
In short: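 Drosophila S3 cells got compounds at several concentrations plus oleic acid (400 uM solution). Laser-scanning cytometry with 488 nm excitation read lipid droplets at 500-530 nm and cells at 575-640 nm. Percent activity was relative to 20 uM Triacsin C.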

[1] = measured here: cell number channel AC50, cells fed with added oleic acid
[2] = measured here: lipid fluorescence (Fed channel) AC50, cells fed with added oleic acid

Compound	AC50 [1]	cell number change [%]	AC50 [2]
Nc1c(Cl)cc(Cl)cc1C(=O)OCC(=O)N1CCCC1	2.06 µM [rising, partial curve]		
CCCCn1c(N)c(N(CC(C)C)C(=O)CCS(=O)(=O)c2ccc(C)cc2)c(=O)[nH]c1=O		-1.2	
O=C(O)C1CCCN1c1nc(-c2ccc(Cl)c(Cl)c2)cc(C(F)(F)F)n1 (centres undefined)		-0.259	20.6 µM [rising, partial curve, poor fit]
O=C(Nc1ccccc1C(=O)N1CCCC1)c1ccc(Cl)cc1Cl			5.17 µM [falling, single point]
Cc1c(C)n(C)c2ccc(C(=O)Nc3cccc4ccccc34)cc12		-15.2	2.91 µM [rising, single point]
COc1cc(/C=N/N2C(C)CCCC2C)cc(Br)c1O (centres undefined)	0.00461 µM [falling, full curve, poor fit]	-0.812	
Cc1cc(C)nc(-n2nc(C)cc2NC(=O)CNCc2ccccc2)n1	1.46 µM [rising, full curve]	52	0.461 µM [rising, full curve]
CCOc1ccc2nc(N3CCCC(C(=O)NCCCN4C(C)CCCC4C)C3)sc2c1 (centres undefined)		16.2	0.13 µM [rising, full curve, poor fit]
CN(C)CCCn1c(=S)[nH]c2ccccc2c1=O		-21.7	29.1 µM [falling, single point]
CC(C)c1nc(NCc2ccccc2)c(C#N)c2c1CCCC2	4.11 µM [rising, full curve]	41.4	
CCN(c1ccc(NC(=O)CSc2nnc3nc(C)cc(C)n23)cc1)C(C)C		7.6	0.00461 µM [falling, full curve, poor fit]
CC(NC(=O)Cn1ncc(Cl)c(Cl)c1=O)C12CC3CC(CC(C3)C1)C2 (centres undefined)	0.411 µM [falling, partial curve, poor fit]	-35.6	4.11 µM [falling, partial curve]
O=C(/C=C/c1ccc([N+](=O)[O-])cc1)N(c1ccccn1)C1CCCCC1	29.1 µM [falling, single point]	-55.5	
COc1ccccc1NC(=O)c1cc(-c2ccc(C)o2)nc2ccccc12		27.6	
Cc1nc2[nH]c(=S)[nH]c2cc1Br		-15.9	0.116 µM [falling, full curve, poor fit]
C=CCNCCOc1ccc(C(C)(C)c2ccccc2)cc1	0.00517 µM [falling, full curve, poor fit]	-33.3	8.2 µM [falling, partial curve, poor fit]
COc1ccc(-n2nnnc2SCC(=O)Nc2ccccc2N2CCOCC2)cc1OC		-8.29	0.461 µM [falling, full curve, poor fit]
O=C(CCCN1C(=O)/C(=C\c2cccs2)SC1=S)NNC(=O)c1cccnc1	25.9 µM [falling, partial curve, poor fit]	-57.8	14.6 µM [falling, partial curve]
O=C(Cn1ccc(NC(=O)OCc2ccccc2)nc1=O)NCCc1ccccn1		10.9	0.116 µM [falling, single point]
CCCOc1cccc(C2C(C(=O)c3cc4ccccc4o3)=C(O)C(=O)N2c2cc(C)on2)c1 (centres undefined)	29.1 µM [rising, single point]	35.7	6.51 µM [rising, full curve]

Compound	AC50 [1]	cell number change [%]	AC50 [2]
Cc1ccc(S(=O)(=O)NC(CC(C)C)C(=O)NCc2ccco2)cc1 (centres undefined)		9.81	
COc1cc(CNC2CCCc3ccccc32)cc(OC)c1OC (centres undefined)		8.89	2.59 µM [falling, single point]
Cc1cc(OCC(=O)Nc2ccc(N3CCN(C)CC3)cc2)ccc1Cl		-10.4	0.259 µM [rising, full curve]
Cc1cc(C)c2c(CC(=O)Nc3ccc(Cl)cn3)coc2c1		-11.3	
Cc1cc(C(=O)NC2CC(C)(C)Cc3c2cnn3-c2cccc(F)c2)n(C)n1 (centres undefined)		-14.9	0.058 µM [falling, full curve, poor fit]
O=C(Cn1cnc2ccccc2c1=O)NCCC(=O)Nc1ccc2c(c1)OCO2	6.51 µM [falling, full curve]	-88.7	
COc1ccc(NC(=O)C/C(C)=N/NC(=O)c2cnccn2)c(OC)c1		5.88	29.1 µM [rising, single point]
Cc1cc(=O)[nH]c(SCc2nc3ncccn3c2Br)n1	20.6 µM [rising, single point]	90.9	29.1 µM [rising, single point]
COc1cc(C(C)=O)ccc1OCC(O)Cn1nc(C)c(C(C)=O)c1C (centres undefined)		-2.81	0.0731 µM [falling, full curve, poor fit]
COc1ccc(/C=C/c2ccc(=O)n(Cc3ccccc3)n2)cc1	1.84 µM [rising, full curve]	57.3	5.17 µM [rising, partial curve]
O=C(c1ccc2c(c1)OCO2)N1CCN(C(=O)c2ccco2)CC1			6.51 µM [falling, partial curve]
Cc1ccc(-n2ncc(C#N)c2/N=C/N2CCOCC2)cc1			6.51 µM [rising, single point]
Cc1cccc(Cn2cnc3c(nnn3Cc3ccc(F)cc3)c2=O)c1		17.6	5.17 µM [rising, partial curve]
Cc1ccc(C(=O)COC(=O)c2cc(=O)[nH]c3ccccc23)cc1		5.11	6.51 µM [rising, single point]
COc1ccc(OC)c(NC(=O)CCn2ccnc2)c1	29.1 µM [rising, single point]	38.7	
CC(=O)N1CCc2cc(N=NC3=C(O)CC(C)(C)CC3=O)ccc21		-9.39	
O=C(COc1ccc(F)cc1)Nc1cc(S(=O)(=O)N2CCCCC2)ccc1N1CCCCC1	2.06 µM [rising, full curve]	57.5	0.731 µM [rising, partial curve]
COc1ccc(C2CC(c3ccccc3C)n3nc(N)nc3N2)cc1 (centres undefined)			2.91 µM [rising, single point]
CCC(C(=O)NCc1ccco1)N(C(=O)CNS(=O)(=O)c1ccc(C)cc1)c1ccccc1F (centres undefined)			35.5 µM [falling, partial curve, poor fit]
Cc1cccc(NC(=O)CSc2nnc(-c3ccco3)n2CC2CCCO2)n1 (centres undefined)		-26.3	

Compound	AC50 [1]	cell number change [%]	AC50 [2]
O=C(Cc1ccc(S(=O)(=O)N2CCOCC2)s1)NNC(=O)c1ccccc1Cl		-2.28	0.116 µM [falling, full curve, poor fit]
Cc1cc(C)c(S(=O)(=O)N2CCOCC2)cc1C	0.501 µM [falling, partial curve, poor fit]	-3.53	
CCOc1ccc(C2=Nn3c(nnc3-c3ccccc3)SC2)cc1Cl	0.731 µM [rising, full curve, poor fit]	35.1	0.291 µM [rising, partial curve, poor fit]
Cc1ccc(C(C(=O)NC2CCCCC2)N(CC2CCCO2)C(=O)CCCC(=O)Nc2ccccn2)cc1 (centres undefined)		11.3	
COc1ccc(C(=O)COC(=O)c2ccc3c(c2)NC(=O)CS3)c(OC)c1		20.2	
Cc1cc(C)cc(OC(=O)CS(=O)c2ccc(C(F)(F)F)cc2[N+](=O)[O-])c1 (centres undefined)	1.46 µM [falling, partial curve]	15.8	
Cc1nc2c3cnn(-c4ccc(C)c(C)c4)c3ncn2n1		1.15	
Cc1nnc(NC(=O)C2(c3ccccc3)CCOCC2)s1		6.74	6.51 µM [falling, single point]
Cc1ccc(NC(=O)CO/N=C(\N)c2nonc2N)cc1C		7.04	9.2 µM [rising, partial curve, poor fit]
Cc1nc(CS(=O)(=O)c2ccccc2)cc(N2CCN(c3ccccc3F)CC2)n1	20.6 µM [rising, single point]	58.9	29.1 µM [rising, single point]
COc1ccc(C(=O)CNc2ccc(C)cc2C)cc1			0.0058 µM [rising, full curve, poor fit]
COc1ccc(NS(=O)(=O)c2cc([N+](=O)[O-])ccc2N/N=C\c2c(C)[nH]c3ccccc23)cc1	20.6 µM [rising, partial curve]	139	
CCCNc1ncnc2onc(C)c12		-9.64	0.082 µM [rising, full curve, poor fit]
CCCOc1ccc(N2C(=O)CC(N(Cc3ccco3)C(C)=O)C2=O)cc1 (centres undefined)	29.1 µM [falling, single point]	-30.4	29.1 µM [falling, single point]
CCn1c(C)nc2cc(C(=O)N/N=C/c3ccc(OC)c(O)c3)ccc21		-20	2.31 µM [rising, full curve]
CCOC(=O)C1CCN(C(=O)C2(NC(=O)NC3CCCCC3)CCCCC2)CC1	2.91 µM [falling, partial curve]	-58.6	3.66 µM [falling, full curve]
O=C(Cc1ccccc1)NCC(=O)Nc1cc(Cl)ccc1Cl		19.8	32.6 µM [rising, single point]
O=C(NCc1cccc(Cl)c1)c1cc(COc2ccc3ncccc3c2)on1	29.1 µM [falling, single point]	-38.7	18.4 µM [falling, single point]
COc1ccc(OCC(=O)Nc2ccc3c(c2)nc2n3CCSC2)cc1	6.51 µM [rising, single point]		

Full records as entered above.
Cc1cc(OCC(=O)Nc2ccc(N3CCN(C)CC3)cc2)ccc1Cl in the list: cell number change [%]: -10.4; AC50 [2]: 0.259 µM [rising, full curve]
CCOC(=O)C1CCN(C(=O)C2(NC(=O)NC3CCCCC3)CCCCC2)CC1 in the list: AC50 [1]: 2.91 µM [falling, partial curve]; cell number change [%]: -58.6; AC50 [2]: 3.66 µM [falling, full curve]
